Article PMC5245867
Results are given in words; binding and its absence hold for the method and conditions named. In cells and extracts the contact can be indirect. These calls come from enrichment with a bait or labelling near it, and not all partners need be listed.

Sequences of proteins named here, by UniProt entry; tags and fusion partners are left off.
UniProt O35085: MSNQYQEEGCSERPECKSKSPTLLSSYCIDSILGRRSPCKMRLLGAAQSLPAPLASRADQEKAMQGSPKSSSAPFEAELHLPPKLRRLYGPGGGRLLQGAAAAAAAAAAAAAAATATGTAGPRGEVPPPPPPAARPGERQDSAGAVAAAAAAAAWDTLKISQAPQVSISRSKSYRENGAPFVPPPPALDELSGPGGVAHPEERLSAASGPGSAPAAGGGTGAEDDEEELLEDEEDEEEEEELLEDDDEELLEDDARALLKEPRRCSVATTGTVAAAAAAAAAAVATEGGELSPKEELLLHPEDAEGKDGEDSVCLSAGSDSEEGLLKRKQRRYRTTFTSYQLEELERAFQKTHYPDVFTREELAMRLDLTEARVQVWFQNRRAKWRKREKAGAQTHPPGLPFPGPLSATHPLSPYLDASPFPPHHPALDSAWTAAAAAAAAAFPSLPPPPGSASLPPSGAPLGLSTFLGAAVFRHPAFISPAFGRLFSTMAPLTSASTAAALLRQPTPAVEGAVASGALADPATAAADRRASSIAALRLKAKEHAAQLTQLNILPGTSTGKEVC
UniProt Q02248: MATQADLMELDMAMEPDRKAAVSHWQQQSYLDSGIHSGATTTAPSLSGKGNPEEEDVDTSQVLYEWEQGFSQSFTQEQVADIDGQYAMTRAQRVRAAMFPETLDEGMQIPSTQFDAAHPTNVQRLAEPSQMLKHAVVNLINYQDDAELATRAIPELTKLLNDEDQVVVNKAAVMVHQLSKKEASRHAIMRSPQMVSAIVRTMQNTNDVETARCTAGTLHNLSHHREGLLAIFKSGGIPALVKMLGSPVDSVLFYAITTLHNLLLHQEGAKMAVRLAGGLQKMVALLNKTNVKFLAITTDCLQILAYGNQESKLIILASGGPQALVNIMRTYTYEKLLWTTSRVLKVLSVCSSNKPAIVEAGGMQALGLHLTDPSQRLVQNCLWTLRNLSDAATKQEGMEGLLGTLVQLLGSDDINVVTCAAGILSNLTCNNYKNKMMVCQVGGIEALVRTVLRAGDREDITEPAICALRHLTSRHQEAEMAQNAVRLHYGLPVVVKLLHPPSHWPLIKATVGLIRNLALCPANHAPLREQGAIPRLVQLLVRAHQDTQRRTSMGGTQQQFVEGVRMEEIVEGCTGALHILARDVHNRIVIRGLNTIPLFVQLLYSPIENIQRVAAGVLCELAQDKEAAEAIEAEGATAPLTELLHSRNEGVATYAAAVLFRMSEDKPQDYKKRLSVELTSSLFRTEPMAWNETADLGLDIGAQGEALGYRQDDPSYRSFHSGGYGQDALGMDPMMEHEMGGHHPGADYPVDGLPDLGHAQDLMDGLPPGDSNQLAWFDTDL
UniProt Q91WK0: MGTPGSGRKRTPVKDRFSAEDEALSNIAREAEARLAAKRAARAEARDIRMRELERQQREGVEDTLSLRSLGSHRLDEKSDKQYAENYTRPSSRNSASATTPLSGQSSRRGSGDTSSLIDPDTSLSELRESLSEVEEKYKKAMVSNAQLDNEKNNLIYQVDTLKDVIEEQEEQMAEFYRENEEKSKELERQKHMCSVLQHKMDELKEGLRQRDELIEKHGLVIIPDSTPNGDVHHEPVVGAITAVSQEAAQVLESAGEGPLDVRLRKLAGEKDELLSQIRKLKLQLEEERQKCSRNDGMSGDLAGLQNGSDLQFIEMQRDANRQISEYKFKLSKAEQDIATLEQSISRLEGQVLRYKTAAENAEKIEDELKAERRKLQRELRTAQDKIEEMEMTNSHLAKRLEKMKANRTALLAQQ

B1: B-cell CLL/lymphoma 9 (BCL9) (protein, UniProt Q9D219 1-1425)
chain: MHPSNPKVRSSPSGNTQSSPKSKQEVMVRPPTVMSPSGNPQLDSKFSNQGKPGGSASQSQPSPCDSKSGGHTPKALPGPGGSMGLKNGAGNGAKGKGKRERSISADSFDQRDPGTPNDDSDIKECNSADHIKSQESQHTPHSMTPSTATAPRSSTPSHGQTPAPEPISAQKTPAKVVYVFSTEMANKAAEAVLKGQVETIVSFHIQNISNSKSERSTAPLNTQIPTLRNDPKPLPQQPPAPANQDQNSSQNARLQPTPPIQAPAPKPTAAPRPLDRESPGVENKLIPPVGSPGSSTPLPPDGTGPNSTPNNRAVTPVSQGSNSSSADPKAPPPPPVSGGEPPTLGENPDGLSQEQLEHRERSLQTLRDIQRMLFPDEKEFTAGQTGGPQQNTGVLDGPQKKPDGPIQAMMSQSQSLGKGPGPRTDVGAPFGPQGHRDVPFSPDEMVPPNMSSQSGPIGPDHLDHMTPEQIAWLKLQQEFYEEKRRKQEQVVVQQCSLQDMMVHQHGPRGVVRGPPPPYQMAPGEGWAPGAEPFPDGINISHSLPPRGMAPHPNMPGSQMRLPGFAGMINSEMEGPNVPNPASRPGLSGVSWPDDVPKIPDGRNFPPGQGVFSGPGRGERFPNPQGLSEEMFQQQLAEKQLALPPGMSMEGIRPGMEMNRMIPGSQRHMEPGSNPIFPRIPVEGPLSPSRGDFPKGMPPQIGPGRELEFGMVPGGMKGEVNLNVNMGSSSQMIPQKMREAGAGPEEMMKLRPGSSEMLPAQQKMVPLPFGEHPQQEYGVGPRPFLPMSQGPGSNSGLRNLREPIGPDQRTNSRLSHMPPLPLNPSSNPTSLSTAPPVQRGLGRKPLDISVAGSQVHSPGINPLKSPTMHQVQSPMLGSPSGNLKSPQTPSQLAGMLAGPAAAASIKSPPVLGSAAASPVHLKSPSLPAPSPGWTSSPKPPLQSPGIPPNHKAPLTMASPAMLGSVESGGPPPPTASQPASVNIPGSLPSSTPYPMPPEPTLSQNPLSIMMSRMSKFAMPSSTPLYHDAIKTVASSDDDSPPARSPNLPSMNSMPGMGINTQNPRISGPNPVVPMPTLSPMGMTQPLSHSNQMPSPNAMGPSIPPHGVPMGPGLMSHNPIMGHGSQEPPMVPQGRMGFPQGFPPVQSPPQQVPFPHNGPTGGQGNFPGGIGFPGEGPLGRPSNLPQSSADPALCKPGGPGAPDSFTVLGNSMPSVFTDPDLQEVIRPGATGIPEFDLSRIIPSEKPSQTLQYFPRGEVPGRKQPQGPGPGFSHMQGMMSDQAPRMGLALPGMGGPGPVGTPDIPLGTSPSMPGHNPMRPPAFLQQGMMGPHHRMMSPAQSTVPGPATLMTNPAAAVGMIPGKDRGPAGLYTHPGPVGSPGMMMSMQGMMGPQQNIMIPPQMRPRGMAADVGMGGFSQGPGNPGNMMF

Biological target: Aristaless related homeobox (ARX) protein (mouse (endogenous in E14.5 forebrain)) (UniProt O35085)
Test: affinity purification with mass spectrometry; E14.5 mouse forebrain lysate (buffer B: 25 mM Tris-Cl pH 7.4, 140 mM NaCl, 1% Triton X-100), anti-ARX antibody on Dynabeads, 2 hr at 4°C, acid elution, MS-MS; IgG control

Row | Molecule | binding
1 | β-catenin (CTNNB1) (from UniProt Q02248 1-781) | binds
2 | leucine rich repeat flightless interacting protein 2 (LRRFIP2) (from UniProt Q91WK0 1-415) | binds
3 | B1 | binds
